{"source": "patent US20250262268A1", "about": "“Methods and Compositions for Inhibiting Viral Infection” (New York Genome Center, Inc., priority 2020, published 2025)", "key": {"SARS-CoV-2 [1]": {"test_system": "SARS-CoV-2", "assay": "SARS-CoV-2 plaque formation after amlodipine pre-treatment", "format": "cell-based", "conditions": "A549^ACE2 cells, pre-treatment with amlodipine"}, "SARS-CoV-2 [2]": {"test_system": "SARS-CoV-2", "format": "cell-based", "conditions": "A549^ACE2 cells, pre-treatment with amlodipine"}}, "note": "At least one compound was matched to its structure with a doubt left.", "data": [{"smiles": "CCOC(=O)C1=C(COCCN)NC(C)=C(C(=O)OC)C1c1ccccc1Cl", "note": "(centres unmarked) [amlodipine]", "values": [{"measurement": "SARS-CoV-2 viral infection, plaque formation", "setting": "SARS-CoV-2 [1]", "value": "reduced"}, {"measurement": "SARS-CoV-2 viral infection, number of viral RNA reads from RNA-sequencing", "setting": "SARS-CoV-2 [2]", "value": "reduced"}]}]}
